PubChem BioAssay AID1159584 – Peter MacCallum Cancer Centre | 2016

Assay: 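Genes that CDH1-null MCF10A cells selectively depend on to survive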 (primary screen)
System: human MCF10A breast epithelial cells, parental and CDH1-null
Reagent: siRNA against human genes
Detection: 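ATP luminescence (CellTiter-Glo) viability per line relative to mean mock wells over all plates, and the ratio of CDH1-null to parental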
Direction: CDH1-null / parental viability ratio: higher = CDH1-null cells survive relatively better than parental; CDH1-null viability vs mock: higher = more viable CDH1-null cells; parental viability vs mock: higher = more viable parental cells
Here is an unselected part of about 18,000 deposited reagents. Not given: the amount of reagent, the time to read-out.

Gene	CDH1-null / parental viability ratio	CDH1-null viability vs mock (fraction of mock)	parental viability vs mock (fraction of mock)
FBXO39	0.96	0.88	0.92
OR5AP2	0.68	0.48	0.71
CNTN5	0.48	0.31	0.64
LSM1	0.97	0.76	0.78
IER5	1.02	0.84	0.82
ADM	1.26	0.58	0.46
CCKAR	0.87	0.98	1.13
CNTNAP4	1.52	0.82	0.54
MYOG	1.13	1.06	0.94
TRIM49C	0.98	0.96	0.98
RPL7A	1.43	0.4	0.28
ESRRB	1.18	1.11	0.94
PRICKLE1	1	0.94	0.94
DDX53	0.99	0.82	0.83
SOWAHB	1.04	0.59	0.57
A3GALT2	0.92	0.79	0.86
TRIM71	0.98	0.86	0.88
UBR4	1.09	0.95	0.87
PRLR	0.74	0.57	0.77
SF3B6	0.7	0.14	0.2
PLPPR3	1.13	1.02	0.9
PRKAA2	0.82	0.8	0.98
DDX52	0.96	0.9	0.94
MED21	1.85	1.15	0.62
TRIM69	0.78	0.51	0.65
ZNF446	0.94	0.68	0.72
SCAF1	1.32	0.62	0.47
ZNF384	0.61	0.42	0.69
ANO4	0.99	0.87	0.88
A4GNT	0.84	0.62	0.74
MYPN	1.45	1.16	0.8
TM7SF3	1.01	0.84	0.83
RPL3L	0.65	0.31	0.48
SYNJ2BP	1.32	0.5	0.38
CCDC88A	1.12	0.56	0.5
TCEA3	0.9	0.72	0.8
FGF1	0.93	0.76	0.82
AKR1A1	1.14	0.82	0.72
ADAMTS16	1.07	0.76	0.71
SIRPD	1.11	0.8	0.72
OR5B17	1.34	0.67	0.5
FUNDC1	1.03	1.08	1.05
ZNF559	1.14	1.12	0.98
TAF9B	0.86	0.88	1.02
LCN6	1.03	0.66	0.64
CFAP107	0.8	0.53	0.66
